In PMC5983871:
These are yes or no findings as the source states them, for the method shown. Binding seen in cells or lysates may run through a third protein. Some entries that bind do so weakly or less than the wild type. Sequences can lack the tags named with a protein.

By UniProt entry, the sequences of proteins in these tests, tags left out.
UniProt P84077: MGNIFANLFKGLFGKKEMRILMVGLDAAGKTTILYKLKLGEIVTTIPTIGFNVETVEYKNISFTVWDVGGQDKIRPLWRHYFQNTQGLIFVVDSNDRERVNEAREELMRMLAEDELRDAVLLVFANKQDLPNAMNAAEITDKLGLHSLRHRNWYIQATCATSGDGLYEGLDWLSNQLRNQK

Target: T1, GST-GGA3 (Golgi associated, gamma-adaptin ear containing, Arf-binding protein 3) (UniProt Q9NZ52)
T1 sequence: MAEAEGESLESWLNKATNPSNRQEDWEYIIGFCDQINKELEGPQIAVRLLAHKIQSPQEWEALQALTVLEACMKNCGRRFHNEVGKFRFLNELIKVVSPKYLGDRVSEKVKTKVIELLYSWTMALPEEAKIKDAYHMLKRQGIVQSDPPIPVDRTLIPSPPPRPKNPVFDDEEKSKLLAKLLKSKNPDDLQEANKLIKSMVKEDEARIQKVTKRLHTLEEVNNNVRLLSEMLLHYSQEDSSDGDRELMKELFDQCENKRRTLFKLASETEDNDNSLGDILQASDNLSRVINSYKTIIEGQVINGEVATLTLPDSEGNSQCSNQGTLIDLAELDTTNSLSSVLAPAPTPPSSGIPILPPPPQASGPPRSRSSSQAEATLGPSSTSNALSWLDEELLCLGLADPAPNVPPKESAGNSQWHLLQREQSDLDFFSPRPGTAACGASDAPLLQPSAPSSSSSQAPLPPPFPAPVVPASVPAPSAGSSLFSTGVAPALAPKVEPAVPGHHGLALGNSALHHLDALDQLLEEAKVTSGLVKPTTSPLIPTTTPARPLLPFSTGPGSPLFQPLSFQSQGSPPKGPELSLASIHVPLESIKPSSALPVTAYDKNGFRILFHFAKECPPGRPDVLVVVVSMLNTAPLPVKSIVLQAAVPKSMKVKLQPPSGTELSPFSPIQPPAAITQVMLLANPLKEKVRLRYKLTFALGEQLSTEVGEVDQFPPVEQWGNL
Assay: pull-down; only the target purified

binding: binds
Substance: ADP ribosylation factor 1, GTP-bound (activated) form (from UniProt P84077 1-181)
